Experimental data: PubChem BioAssay AID1224830 (NIAID, 2016)
Screen: 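Regulators of TLR4 signalling towards TNF-alpha in macrophage-like cells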 (primary screen). System: human THP-1 monocytic leukaemia cells, TNF dual-luciferase reporter clone, PMA-differentiated to macrophage-like cells. Knock-down reagent: siRNA pool against human genes, 50 nM. Time to read-out: LPS for 4 h, given about 3 days after siRNA transfection. Challenge: bacterial LPS (TLR4 ligand), 10 ng/ml. Read-out: 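TNF firefly reporter luminescence divided by renilla, normalised to the plate median, then turned into a robust z-score for each replicate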. Direction: TNF reporter robust z-score: higher = stronger TNF reporter response to LPS. Active means: 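a well is active when its z-score exceeds 2.8 or falls below -1.5; control wells carry no call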.
Here is an unselected part of about 18,000 reagents tested. About 2,900 of all reagents (16%) were called active. 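Calls are made per well; low scores hint the gene aids the LPS response, high scores that it dampens it.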 Repeated entries: four replicate wells of each siRNA pool.

| gene | TNF reporter robust z-score | outcome |
| --- | --- | --- |
| ACSL1 | -0.5 | inactive |
| ACSL1 | 4.38 | active |
| ACSL1 | 0.38 | inactive |
| ACSL1 | 0.77 | inactive |
| RPP21 | -0.55 | inactive |
| RPP21 | -0.5 | inactive |
| RPP21 | -0.72 | inactive |
| RPP21 | -0.36 | inactive |
| MYF6 | -1.44 | inactive |
| MYF6 | -0.79 | inactive |
| MYF6 | -0.6 | inactive |
| MYF6 | -0.61 | inactive |
| VPS37A | 0.41 | inactive |
| VPS37A | 1.27 | inactive |
| VPS37A | 0.19 | inactive |
| VPS37A | -0.45 | inactive |
| OR52N5 | -0.72 | inactive |
| OR52N5 | 0.24 | inactive |
| OR52N5 | -0.11 | inactive |
| OR52N5 | -0.25 | inactive |
| CYP3A4 | 0.27 | inactive |
| CYP3A4 | -0.61 | inactive |
| CYP3A4 | 0.14 | inactive |
| CER1 | 0.45 | inactive |
| CER1 | 0.12 | inactive |
| CER1 | -0.02 | inactive |
| CER1 | -0.8 | inactive |
| SS18 | 0.26 | inactive |
| SS18 | -0.35 | inactive |
| SS18 | -0.21 | inactive |
| SS18 | 0.45 | inactive |
| SYT1 | -1.59 | active |
| SYT1 | -1.31 | inactive |
| SYT1 | -1.63 | active |
| SYT1 | -1.83 | active |
| BEST2 | -0.43 | inactive |
| BEST2 | -0.55 | inactive |
| BEST2 | 0.02 | inactive |
| BEST2 | 0.24 | inactive |
| TLX3 | 1.08 | inactive |
| TLX3 | 0.58 | inactive |
| TLX3 | 1.68 | inactive |
| TLX3 | -0.05 | inactive |
| SEC23B | -0.89 | inactive |
| SEC23B | -1.15 | inactive |
| SEC23B | -1.02 | inactive |
| PPTC7 | -0.49 | inactive |
| PPTC7 | -0.4 | inactive |
| PPTC7 | -0.39 | inactive |
| PPTC7 | -1.02 | inactive |
| FNTB | -0.56 | inactive |
| FNTB | -0.14 | inactive |
| FNTB | -0.26 | inactive |
| FNTB | 0.72 | inactive |
| CCNP | -1.18 | inactive |
| CCNP | -0.37 | inactive |
| CCNP | 0.11 | inactive |
| CCNP | 0.41 | inactive |
| S100A9 | -1.09 | inactive |
| S100A9 | -0.22 | inactive |
| S100A9 | -0.35 | inactive |
| S100A9 | -0.57 | inactive |
| AHCY | -0.43 | inactive |
| AHCY | -0.04 | inactive |
| AHCY | -0.6 | inactive |
| AHCY | -0.15 | inactive |
| PTX4 | 0.66 | inactive |
| PTX4 | 1.91 | inactive |
| PTX4 | -1.14 | inactive |
| PTX4 | -0.84 | inactive |
| MORN3 | 1.49 | inactive |
| MORN3 | 1.45 | inactive |
| MORN3 | 0.79 | inactive |
| MORN3 | -0.02 | inactive |
| WDR74 | 1.39 | inactive |
| WDR74 | 1.8 | inactive |
| WDR74 | -0.1 | inactive |
| WDR74 | 3.27 | active |
